Test results reported in article PMC12664036.
These are yes or no findings as the source states them, for the method shown. In cells and extracts the contact can be indirect. A yes stands for co-enrichment or nearness to the bait. Other partners may have been found.

Protein sequences, listed by entry. Tags and fused reporters are not part of them.
UniProt Q6ZPI0: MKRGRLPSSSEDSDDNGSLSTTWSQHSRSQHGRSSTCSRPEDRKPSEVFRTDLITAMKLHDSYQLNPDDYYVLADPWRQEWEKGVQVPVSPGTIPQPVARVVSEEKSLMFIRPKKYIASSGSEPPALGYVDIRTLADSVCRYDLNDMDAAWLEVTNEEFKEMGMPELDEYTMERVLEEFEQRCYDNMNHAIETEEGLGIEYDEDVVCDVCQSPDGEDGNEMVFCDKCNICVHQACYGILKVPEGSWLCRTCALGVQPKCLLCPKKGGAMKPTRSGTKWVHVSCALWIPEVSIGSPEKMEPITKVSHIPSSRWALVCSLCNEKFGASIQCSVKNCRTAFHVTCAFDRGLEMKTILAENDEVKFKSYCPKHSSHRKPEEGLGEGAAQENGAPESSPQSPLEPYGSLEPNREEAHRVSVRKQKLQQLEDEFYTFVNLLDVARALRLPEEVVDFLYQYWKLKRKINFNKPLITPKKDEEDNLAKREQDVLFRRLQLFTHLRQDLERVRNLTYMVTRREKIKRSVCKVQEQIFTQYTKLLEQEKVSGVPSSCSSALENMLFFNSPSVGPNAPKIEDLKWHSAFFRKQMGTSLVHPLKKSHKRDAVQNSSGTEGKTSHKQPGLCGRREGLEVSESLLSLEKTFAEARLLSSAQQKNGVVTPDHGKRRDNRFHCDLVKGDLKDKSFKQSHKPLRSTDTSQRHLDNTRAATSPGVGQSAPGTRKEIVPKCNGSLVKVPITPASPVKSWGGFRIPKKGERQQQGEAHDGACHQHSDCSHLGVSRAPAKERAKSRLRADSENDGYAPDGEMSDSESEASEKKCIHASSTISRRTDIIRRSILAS
UniProt P56546: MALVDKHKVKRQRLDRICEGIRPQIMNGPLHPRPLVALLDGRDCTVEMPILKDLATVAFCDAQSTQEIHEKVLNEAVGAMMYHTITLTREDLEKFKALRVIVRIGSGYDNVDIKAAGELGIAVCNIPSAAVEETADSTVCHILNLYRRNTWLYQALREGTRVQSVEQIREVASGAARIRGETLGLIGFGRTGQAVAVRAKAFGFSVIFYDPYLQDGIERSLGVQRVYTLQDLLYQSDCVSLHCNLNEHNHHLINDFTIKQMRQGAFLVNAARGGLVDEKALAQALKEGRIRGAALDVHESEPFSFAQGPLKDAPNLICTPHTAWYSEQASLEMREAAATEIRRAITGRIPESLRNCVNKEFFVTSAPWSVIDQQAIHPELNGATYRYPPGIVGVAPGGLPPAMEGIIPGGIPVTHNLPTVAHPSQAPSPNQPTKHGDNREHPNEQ

Tests used:
[1] = target: Oct4 (Pou5f1), endogenous in mouse embryonic stem cells (mouse (endogenous in mouse ESCs)) (UniProt P20263); test: affinity purification with mass spectrometry; multimerised WT MORE dsDNA on FG magnetic beads (mutant DNA as control) incubated with Oct1 deficient mouse ESC lysate, 4 C, 4 h; washes 100, 200, 300 mM KCl; elution with 300 mM KCl and free DNA; LC-MS/MS, N = 3; Oct4 is held through the DNA
[2] = target: Oct4 (Pou5f1), endogenous in mouse embryonic stem cells (mouse (endogenous in mouse ESCs)) (UniProt P20263); test: affinity purification with mass spectrometry; multimerised WT octamer dsDNA on FG magnetic beads (mutant DNA as control) incubated with Oct1 deficient mouse ESC lysate, 4 C, 4 h; washes 100, 200, 300 mM KCl; elution with 300 mM KCl and free DNA; LC-MS/MS, N = 3; Oct4 is held through the DNA

Row | Substance | binding [1] | binding [2]
1 | Jade1, endogenous in mouse embryonic stem cells (from UniProt Q6ZPI0 1-834) | binds | –
2 | Ctbp2, endogenous in mouse embryonic stem cells (from UniProt P56546 1-445) | – | binds
